Some of the results follow. These are further read-outs of the screen, such as a control signal, another cell line or another target. No call is given for them. Compounds called inactive in the main read-out are mostly missing here. The note in brackets gives the kind of curve behind each potency; many fits are weak.
Assay: qHTS Assay for Lipid Storage Modulators in Drosophila S3 Cells;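 on cell number change: cells counted by Cell Tracker Red CMTPX staining in the red channel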
Conditions: BODIPY lipid droplet fluorescence, 18-24 h; for cell number change: measured here: cell count max response, cells fed with added oleic acid
In short: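 Drosophila S3 cells got compounds at several concentrations plus oleic acid (400 uM solution). Laser-scanning cytometry with 488 nm excitation read lipid droplets at 500-530 nm and cells at 575-640 nm. Percent activity was relative to 20 uM Triacsin C.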

[1] = measured here: cell number channel AC50, cells fed with added oleic acid
[2] = measured here: lipid fluorescence (Fed channel) AC50, cells fed with added oleic acid

SMILES: Cc1ccc(S(=O)(=O)N/N=C/c2ccc(OCC(=O)Nc3ccccc3Cl)cc2)cc1
- cell number change: -18.1%

SMILES: Cc1ccc(C(=O)COC(=O)CNC(=O)COc2ccccc2C)cc1C
- cell number change: 1.41%
- AC50 [1]: 1.3 µM [falling, partial curve]
- AC50 [2]: 0.517 µM [falling, single point]

SMILES: O=C(Nc1ccc(Cl)cc1)c1csc(-c2ccccc2)n1
- AC50 [2]: 0.58 µM [falling, single point]

SMILES: O=C(NNS(=O)(=O)c1ccccc1)c1ccncc1
- cell number change: 3.09%

SMILES: COc1ccc(-c2cc(CCCC(=O)N3CCN(c4ccc(OC)cc4)CC3)no2)cc1
- cell number change: 0.991%
- AC50 [2]: 0.00461 µM [falling, full curve, poor fit]

SMILES: CCN(C(=O)CSc1nnc(Cc2cccc3ccccc23)n1N)C1CCS(=O)(=O)C1 (configuration not stated)
- AC50 [2]: 0.92 µM [rising, full curve, poor fit]

SMILES: Cc1cc(C)n2cc(-c3ccc(Cl)cc3)c(C(=O)O)c2n1
- cell number change: -15%
- AC50 [1]: 6.51 µM [falling, single point]
- AC50 [2]: 6.51 µM [falling, single point]

SMILES: CN(C)c1cc(N/N=C/c2ccccc2C(F)(F)F)nc(N(C)C)n1
- cell number change: 0.549%
- AC50 [2]: 29.1 µM [falling, single point]

SMILES: O=C(Nc1ccccc1)NC1CCN(CCCN2C(=O)c3ccccc3C2=O)CC1
- cell number change: 2.33%

SMILES: Cc1ccc(NC(=O)CC2Oc3ccc(C)cc3NC2=O)cc1 (configuration not stated)
- cell number change: -7%
- AC50 [2]: 0.0731 µM [falling, full curve, poor fit]

SMILES: Cc1ccc2c(c1)nnn2C1CCN(CC(=O)N2CCN(c3ccc(F)cc3)CC2)CC1
- AC50 [2]: 6.51 µM [rising, partial curve]

SMILES: Nn1c(SCC(=O)N2CCc3ccccc3C2)nnc1-c1cccs1
- cell number change: 7.9%
- AC50 [2]: 4.61 µM [rising, full curve]

SMILES: O=C(NNC(=O)c1cccc(O)c1)Nc1ccc([N+](=O)[O-])cc1
- cell number change: -41%
- AC50 [1]: 25.9 µM [falling, single point]
- AC50 [2]: 25.9 µM [falling, partial curve]

SMILES: CCn1c(C)c(C(C)=O)cc(C#N)c1=O
- cell number change: 11.2%
- AC50 [1]: 0.00461 µM [rising, full curve, poor fit]

SMILES: O=[N+]([O-])c1ccc2[nH]nc(-c3ccccc3)c2c1
- cell number change: 37.3%
- AC50 [1]: 11.6 µM [rising, single point]
- AC50 [2]: 0.326 µM [rising, full curve]

SMILES: Cn1nc(-c2ccccc2)c2nc3ccccc3nc21
- cell number change: -15.4%
- AC50 [2]: 1.84 µM [rising, partial curve]

SMILES: C/C(=N\O)c1ccc2[nH]ccc2c1
- cell number change: -2.87%

SMILES: Cc1nn(Cc2ccccc2)c(=O)c2nn(-c3ccc(Cl)cc3)c(C)c12
- cell number change: 3.94%
- AC50 [1]: 6.51 µM [falling, single point]
- AC50 [2]: 6.51 µM [falling, single point]

SMILES: CSc1nc2ccc(NC(=O)CSc3nnc(N)s3)cc2s1
- cell number change: 49.8%
- AC50 [1]: 9.2 µM [rising, partial curve]

SMILES: COc1cc(C(=O)OCC(=O)c2ccc(S(=O)(=O)N3CCCCC3)cc2)cc(OC)c1OC
- cell number change: 4.4%

SMILES: Cc1cccc(CN2CCN(C(=O)CN(C)C(C)C(=O)Nc3ccc(C(N)=O)cc3)CC2)c1 (configuration not stated)
- cell number change: -14.7%
- AC50 [1]: 0.058 µM [falling, full curve, poor fit]
- AC50 [2]: 0.116 µM [falling, full curve, poor fit]

SMILES: CC(C)=CCC/C(C)=C/C=N/NC(=O)c1ccccc1[N+](=O)[O-]
- cell number change: 1.28%
- AC50 [2]: 7.31 µM [falling, single point]

SMILES: O=S(=O)(c1cc(Cl)ccc1Cl)n1nnc2ccccc21
- cell number change: 43%
- AC50 [1]: 29.1 µM [rising, single point]

SMILES: COc1cccc(NC(=O)CN(c2cccc(F)c2)S(C)(=O)=O)c1
- cell number change: 13.8%
- AC50 [2]: 6.51 µM [rising, single point]

SMILES: Cc1ccc(S(=O)(=O)NCc2ccccn2)cc1C
- AC50 [1]: 1.84 µM [rising, partial curve]
- AC50 [2]: 29.1 µM [rising, single point]

SMILES: CCCCCCO
- cell number change: 15.9%

SMILES: CCOc1ccccc1NC(=O)Cn1nnc(-c2ccc(OCC)c(OCC)c2)n1
- cell number change: -52.8%
- AC50 [1]: 29.1 µM [falling, single point]
- AC50 [2]: 2.91 µM [rising, partial curve]

SMILES: Cc1cc(NC(=O)Cn2cc([N+](=O)[O-])cn2)no1
- cell number change: 6.33%
- AC50 [2]: 1.64 µM [falling, partial curve]

SMILES: Cc1nn(S(=O)(=O)N2CCCCC2)c(C)c1Br
- cell number change: 21%
- AC50 [2]: 6.51 µM [falling, single point]

SMILES: COc1ccccc1C1(O)CCN(CC(=O)Nc2nc(-c3ccccc3)cs2)CC1
- cell number change: -28.9%
- AC50 [2]: 9.2 µM [falling, partial curve]

SMILES: Cc1ccccc1Nc1cc(C)c2c(O)cccc2n1
- cell number change: -23.1%
- AC50 [2]: 16.4 µM [falling, partial curve]

SMILES: COc1ccccc1C(=O)NC(CCSC)C(=O)NCCCn1nc(C)cc1C (configuration not stated)
- cell number change: 25.9%
- AC50 [2]: 29.1 µM [rising, single point]

SMILES: CCc1c(C)[nH]n(-c2nc(-c3ccccc3)cs2)c1=O
- AC50 [2]: 29.1 µM [rising, single point]

SMILES: O=C1N=C(c2ccccc2)C(c2ccccc2)N1 (configuration not stated)
- AC50 [2]: 2.59 µM [falling, single point]

SMILES: Cc1ccc(NC(=O)CN(C)C(=S)NC2CC2)cc1
- cell number change: -40.7%
- AC50 [1]: 5.17 µM [falling, full curve]
- AC50 [2]: 13 µM [falling, single point]

SMILES: COc1cc(C(=O)NNC(=O)CNC(=O)c2ccc(Br)o2)cc(OC)c1OC
- cell number change: 17.8%
- AC50 [2]: 2.91 µM [rising, single point]

SMILES: CC(C)(CSc1ccccn1)NS(=O)(=O)c1ccc(Cl)cc1
- cell number change: 8.71%
- AC50 [2]: 4.11 µM [rising, partial curve]

SMILES: CCNC(=O)COC(=O)c1cc(C)nc2ccccc12
- cell number change: 3.42%
- AC50 [1]: 0.00461 µM [rising, full curve, poor fit]
- AC50 [2]: 0.092 µM [rising, full curve, poor fit]

SMILES: Cc1cccc(C)c1OCc1cc(C(=O)N(C)Cc2nc3ccccc3[nH]2)no1
- cell number change: -49%
- AC50 [1]: 18.4 µM [falling, partial curve, poor fit]
- AC50 [2]: 29.1 µM [falling, single point]
